Assay results as given in PubChem BioAssay (NCATS).
This list was built around the results that the source calls inconclusive (neither active nor inactive); the mix of calls is not that of the screen. Where the call is inconclusive, the potency comes from a doubtful curve fit. Activity calls are given as the source filed them. Calls follow the shape of the dose curve; as a rule, active = well fitted cell-killing curve with a large enough effect; inconclusive = small, poorly fitted or top-dose-only effect, or effect the other way, or another doubt; inactive = no such curve, though single readings can be large or run the other way.

assay: Identifying Small Molecule Inhibitors of Pancreatic Cancer Stem Cells (Panc1, Spheroid) (AID 1259359); conditions: Panc1 spheroid cancer stem cell viability; viability, % of control: at 46.1 µM (top of the series);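 also: compound exposure lasted 48 h before reading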
Source text: Progenitor-like cancer cells, often referred to as cancer stem cells (CSC), are believed to be the drivers of therapeutic resistance and rapid recurrence. CSCs are postulated to reside in specific niches characterized by low oxygen tension, limited nutrient supply, and high redox load. Selectively targeting CSC, alone or in combination with cytotoxic agents, as a means to produce durable remissions is an appealing concept. Modeling these cells in in vitro setting is an important step in finding new therapies and/or targets. Multiple reports highlight that forcing cells in culture into 3-dimensionaly architectures (spheroids) re-establishes key progenitor-like transcriptional signatures. Pancreatic cancer is among the diseases with the most dismal outlook which is driven, largely, by recurance following front-line therapies. […] In hopes of deriving new insight into the targeting of these pancreatic CSCs we examined three established pancreatic cancer cell lines in cytotoxicity assays versus a collection of approved and investigational drugs. Importantly, we screened these lines as traditional monolayer (2D) and spheroid (3D) formats to gain an appreciation of agents with differential activity.
Multicellular tumor spheroids from Panc1, MiaPaCa-2, and the primary low-passage tissue culture line SB.06 were seeded in stem cell media (SCM) in nonadherent 6-well plates coated with hydrogel (Corning Life Sciences, Chelmsford, Mass) and pancreatic spheres generated for 14 days before screening. Cells were seeded into 1536-well solid-bottom white tissue culture treated Greiner Bio One Plates (789173-F) using a MultiDrop Combi (Thermofisher Scientific) dispenser and a small sterile cassette. One column was media alone to be used as a :"no cells" control. The plates were then covered with sterilized stainless steel gasketed lids from Kalypsys. After allowing cells to attach for 4 hours, 23 nL of test compound or control (negative control DMSO and positive control 9.2 uM Bortezomib-final) were added from a 1536-well polypropylene compound source plate to each well using a 1536 head pin tool from Kalypsys. Cells were then incubated for 48 hours at 37C, 95% relative humidity and 5% CO2. After 48 hours, plates were removed from the incubator and 3 uL of CellTiter-Glo (Promega) was added using an Aurora Flying Reagent Dispenser Bioraptor. Plates were incubated at room temperature for 10 minutes prior to reading the luminescence on the Viewlux (PerkinElmer). The relative luciferase units are used to calculate the percent activity using the activity of DMSO in the cells and no cells columns for normalization of no inhibition and full inhibition respectively.
Potency is read from the fitted curve at half-maximal effect.

**Q.** With `C=CCON=C(C[C@H]1O[C@@H]2O[C@]3(C)CC[C@@H]4[C@H](C)CC[C@@H]([C@H]1C)[C@@]24OO3)[C@H]1O[C@@H]2O[C@]3(C)CC[C@H]4[C@H](C)CC[C@@H]([C@@H]1C)[C@@]24OO3` as the compound, how does the Potency read?
**A.** The Potency was inconclusive: 3 nM [cytotoxic, full curve, poor fit].

**Q.** With `O=P1(N(CCCl)CCCl)NCCCO1` (stereo not drawn) as the compound, how does the viability, % of control read?
**A.** Its viability, % of control is inconclusive: 121%.

**Q.** With `C[C@]12CCC(=O)C(O)=C1CC[C@@H]1[C@@H]2CC[C@]2(C)C(=O)CC[C@@H]12` as the compound, how does the Potency read?
**A.** The Potency was inconclusive: 26.4 nM [cytotoxic, full curve, poor fit].

**Q.** Which viability, % of control does the source give for `CC(=O)Nc1ccc(OC[C@](C)(O)C(=O)Nc2ccc([N+](=O)[O-])c(C(F)(F)F)c2)cc1` here?
**A.** The viability, % of control was inconclusive: 114%.

**Q.** With `COc1ccc(C(=O)c2c(C)n(CCN3CCOCC3)c3ccccc23)cc1` as the compound, how does the Potency read?
**A.** Its Potency is inconclusive: 10500 nM [cytotoxic, full curve, poor fit].

**Q.** With `Cc1sc2c(c1C)C(c1ccc(Cl)cc1)=N[C@@H](CC(=O)OC(C)(C)C)c1nnc(C)n1-2` as the compound, how does the Potency read?
**A.** The Potency was inconclusive: 743 nM [cytotoxic, full curve].

**Q.** Which Potency does the source give for `CC(C)[C@]12O[C@H]1[C@@H]1O[C@]13[C@]1(O[C@H]1C[C@H]1C4=C(CC[C@@]13C)C(=O)OC4)[C@@H]2O` here?
**A.** Its Potency is active: 23.5 nM.

**Q.** For `Cc1cc(SCc2sc(-c3ccc(C(F)(F)F)c(F)c3)nc2C)ccc1OCC(=O)O`, which “viability, % of control” value is on record?
**A.** The value was inactive: 84.3%.

**Q.** Which Potency does the source give for `Cc1c(C(=O)Nc2cccc(C(F)(F)F)c2)cc(-c2ccccc2)n1CCCN1CCOCC1` here?
**A.** Its Potency is inconclusive: 37200 nM [cytotoxic, single point].

**Q.** With `C[C@@H]1[C@@H](CC(C[C@H]2O[C@@H]3O[C@]4(C)CC[C@@H]5[C@H](C)CC[C@@H]([C@H]2C)[C@@]35OO4)C[S+](=O)([O-])c2ccc(COC(=O)N(C)C)cc2)O[C@@H]2O[C@]3(C)CC[C@H]4[C@H](C)CC[C@@H]1[C@@]24OO3` (stereo partly drawn) as the compound, how does the Potency read?
**A.** The Potency was inconclusive: 16.6 nM [cytotoxic, full curve].

**Q.** Which viability, % of control does the source give for `CCCCC/C=C\C/C=C\C/C=C\C/C=C\CCCC(=O)NC1CC1` here?
**A.** Its viability, % of control is inconclusive: 84.3%.

**Q.** Which Potency does the source give for `CC(O)(CS(=O)(=O)c1ccc(F)cc1)C(=O)Nc1ccc(C#N)c(C(F)(F)F)c1` (stereo not drawn) here?
**A.** Its Potency is inconclusive: 5.3 nM [cytotoxic, full curve, poor fit].

**Q.** With `Cn1c(CCCC(=O)O)nc2cc(N(CCCl)CCCl)ccc21` as the compound, how does the “viability, % of control” value read?
**A.** Its value is inactive: 98.5%.

**Q.** With `CNC(=O)c1ccc(N2C(=S)N(c3ccc(C#N)c(C(F)(F)F)c3)C(=O)C23CCC3)cc1F` as the compound, how does the Potency read?
**A.** The Potency was inconclusive: 418 nM [cytotoxic, full curve, poor fit].

**Q.** For `COC[C@H]1OC(=O)c2coc3c2[C@@]1(C)C1=C(C3=O)C2CCC(=O)[C@@]2(C)C[C@H]1OC(C)=O` (stereo partly drawn), which Potency is on record?
**A.** Its Potency is inconclusive: 10500 nM [cytotoxic, partial curve, poor fit].

**Q.** With `O=C(O)C(=O)c1cn(Cc2ccccc2)c2ccc(-c3ccc(OC(F)(F)F)cc3)cc12` as the compound, how does the “viability, % of control” value read?
**A.** The value was inactive: 71.8%.

**Q.** With `CC1CC(C)C(=O)C(C(O)CC2CC(=O)NC(=O)C2)C1` (stereo not drawn) as the compound, how does the Potency read?
**A.** Its Potency is active: 2410 nM.

**Q.** With `CNC(=O)N1N=C(c2ccc(N)cc2)c2cc3c(cc2CC1C)OCO3` (stereo not drawn) as the compound, how does the Potency read?
**A.** Its Potency is inconclusive: 59000 nM [cytotoxic, partial curve, poor fit].

**Q.** For `Cn1cc(C2=C(c3cn(C4CCN(Cc5ccccn5)CC4)c4ccccc34)C(=O)NC2=O)c2ccccc21`, which Potency is on record?
**A.** The Potency was inconclusive: 13200 nM [cytotoxic, partial curve, poor fit].

**Q.** With `Cc1ccccc1-n1c(Cn2cnc3c(N)ncnc32)nc2cccc(C)c2c1=O` as the compound, how does the Potency read?
**A.** The Potency was inconclusive: 46.9 nM [cytotoxic, full curve, poor fit].

**Q.** Which Potency does the source give for `CC1=C2C[C@@H]3[C@@H](CC=C4C[C@@H](O)CC[C@@]43C)[C@@H]2CC[C@]12O[C@H]1C[C@H](C)CN[C@H]1[C@H]2C` here?
**A.** Its Potency is inconclusive: 20900 nM [cytotoxic, single point].

**Q.** Which Potency does the source give for `C[C@@H]1[C@@H](C(=O)C[C@H]2O[C@@H]3O[C@]4(C)CC[C@@H]5[C@H](C)CC[C@@H]([C@H]2C)[C@@]35OO4)O[C@@H]2O[C@]3(C)CC[C@H]4[C@H](C)CC[C@@H]1[C@@]24OO3` here?
**A.** The Potency was inconclusive: 37.2 nM [cytotoxic, full curve, poor fit].

**Q.** For `CN(C)CCN(C)CCc1ccc(Cl)c(Cl)c1`, which Potency is on record?
**A.** The Potency was inconclusive: 1 nM.

**Q.** Which viability, % of control does the source give for `COC1(CS(=O)c2ccccc2)CCN(CCc2c[nH]c3ccc(F)cc23)CC1` (stereo not drawn) here?
**A.** The viability, % of control was inconclusive: 84.2%.

**Q.** For `COc1ccc2c(c[n+](C)c3c4cc5c(cc4ccc23)OCO5)c1OC`, which Potency is on record?
**A.** The Potency was inconclusive: 10500 nM [cytotoxic, full curve, poor fit].

**Q.** Which Potency does the source give for `Cc1nc(-c2ccc(-c3ccc(C(=O)N4CCc5cc6c(cc54)C4(CCN(C)CC4)CO6)cc3)c(C)c2)no1` here?
**A.** Its Potency is inconclusive: 29600 nM [cytotoxic, partial curve, poor fit].

**Q.** Which Potency does the source give for `O=C(Oc1ccc([N+](=O)[O-])cc1)N1CCC(C(O)(c2ccc3c(c2)OCO3)c2ccc3c(c2)OCO3)CC1` here?
**A.** Its Potency is inconclusive: 105 nM [cytotoxic, full curve, poor fit].

**Q.** For `O=C(O)c1nn(Cc2ccc(Cl)cc2Cl)c2ccccc12`, which Potency is on record?
**A.** The Potency was inconclusive: 8330 nM [cytotoxic, partial curve, poor fit].
